The values that follow come from publication PMC6102491.

Protein sequences, listed by entry. Tags and fused reporters are not part of them.
UniProt P93002: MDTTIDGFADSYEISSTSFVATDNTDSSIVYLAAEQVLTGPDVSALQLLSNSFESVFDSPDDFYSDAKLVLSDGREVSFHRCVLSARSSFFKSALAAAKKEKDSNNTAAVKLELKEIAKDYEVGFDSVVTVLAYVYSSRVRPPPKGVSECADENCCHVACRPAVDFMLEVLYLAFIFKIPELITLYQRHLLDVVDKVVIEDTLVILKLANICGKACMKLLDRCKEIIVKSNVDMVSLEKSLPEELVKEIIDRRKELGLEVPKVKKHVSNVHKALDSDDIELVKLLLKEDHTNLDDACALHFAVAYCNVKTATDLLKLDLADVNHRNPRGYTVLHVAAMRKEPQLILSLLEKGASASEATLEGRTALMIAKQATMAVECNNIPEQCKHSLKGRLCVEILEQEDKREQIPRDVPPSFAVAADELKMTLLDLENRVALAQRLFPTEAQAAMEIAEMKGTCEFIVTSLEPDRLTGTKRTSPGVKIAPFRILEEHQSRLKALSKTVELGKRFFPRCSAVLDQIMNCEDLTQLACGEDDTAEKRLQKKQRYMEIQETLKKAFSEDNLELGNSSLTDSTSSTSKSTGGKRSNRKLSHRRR
UniProt Q9C518: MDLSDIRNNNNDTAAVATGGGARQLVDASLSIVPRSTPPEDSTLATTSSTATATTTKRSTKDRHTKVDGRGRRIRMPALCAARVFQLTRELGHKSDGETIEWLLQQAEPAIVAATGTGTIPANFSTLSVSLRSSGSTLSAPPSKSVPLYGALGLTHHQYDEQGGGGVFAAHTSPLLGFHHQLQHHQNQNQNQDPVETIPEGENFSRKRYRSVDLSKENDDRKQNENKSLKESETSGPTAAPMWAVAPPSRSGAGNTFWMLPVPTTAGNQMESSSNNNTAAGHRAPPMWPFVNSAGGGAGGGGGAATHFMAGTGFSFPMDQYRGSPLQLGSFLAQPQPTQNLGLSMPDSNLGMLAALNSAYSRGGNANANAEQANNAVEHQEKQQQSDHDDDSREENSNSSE
UniProt Q93Z00: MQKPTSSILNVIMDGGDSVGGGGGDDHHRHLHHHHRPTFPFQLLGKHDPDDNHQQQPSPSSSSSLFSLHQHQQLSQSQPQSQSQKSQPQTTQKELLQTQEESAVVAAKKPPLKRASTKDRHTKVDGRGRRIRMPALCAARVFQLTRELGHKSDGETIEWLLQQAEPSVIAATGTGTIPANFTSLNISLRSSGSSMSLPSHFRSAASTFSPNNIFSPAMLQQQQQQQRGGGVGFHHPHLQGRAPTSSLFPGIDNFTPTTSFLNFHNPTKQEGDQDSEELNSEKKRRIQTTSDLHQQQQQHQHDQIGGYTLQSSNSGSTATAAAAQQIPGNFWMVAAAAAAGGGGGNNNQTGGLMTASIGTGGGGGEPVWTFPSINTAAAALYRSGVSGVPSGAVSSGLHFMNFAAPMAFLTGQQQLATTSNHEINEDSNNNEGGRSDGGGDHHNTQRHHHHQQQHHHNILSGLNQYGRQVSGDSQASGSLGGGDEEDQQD

Results are given in words; binding and its absence hold for the method and conditions named. For some of these results: In cells and extracts the contact can be indirect. Some results given as binding are weak or reduced against the parent protein; the word gives no strength.

The target in assay [1] is NPR1 fused with a C-terminal GFP tag (NPR1-GFP) (Arabidopsis) (UniProt P93002). Description: co-IP; NPR1-GFP co-expressed with HA-TCP14 or HA-TCP15 in N. benthamiana; extracts incubated with GFP-Trap MA beads at 4°C overnight; immunoblot with anti-HA. A general note: Immunoblotting shows a protein as a band on a membrane.
The target in assay [2] is TCP8 fused with an N-terminal FLAG tag (FLAG-TCP8) (Arabidopsis) (UniProt Q9C518). As to the kind of experiment: co-IP; NPR1-GFP and FLAG-TCP8 co-expressed in N. benthamiana; extracts incubated with anti-FLAG M2 magnetic beads at 4°C overnight, no DTT in any buffer; immunoblot with anti-GFP.
The target of assay [3] is NPR1 fused with a GAL4 DNA binding domain (BD-NPR1) (Arabidopsis) (UniProt P93002). Description: two-hybrid; individual prey tests; BD-NPR1 bait (pDEST32, AH109) mated with AD-TF prey (pDEST22, Y187); growth of diploids on -Leu -Trp -His with 1 mM 3-AT.
Assay [4] shares this target. As to the kind of experiment: two-hybrid; library screen; Arabidopsis NPR1 as bait, Arabidopsis transcription factor library as prey.

Regarding HA-TCP15 (from UniProt Q9C9L2 1-325), in assay [1], the binding entry was “binds”.

For “NPR1 fused with a C-terminal GFP tag (NPR1-GFP) (from UniProt P93002 1-593)”, in assay [2], the binding entry is “binds”. As to “TCP8 fused with a GAL4 activation domain (AD-TCP8) (from UniProt Q9C518 1-401)”, the binding result in assay [3] is reported as “binds”. Consider “TCP14 fused with a GAL4 activation domain (AD-TCP14) (from UniProt Q93Z00 1-489)”, for which the binding entry in assay [3] is recorded as “binds”. With “TCP14 fused with an N-terminal HA tag (HA-TCP14) (from UniProt Q93Z00 1-489)”, in assay [1], the binding result is recorded as “binds”. “TCP15 fused with a GAL4 activation domain (AD-TCP15) (from UniProt Q9C9L2 1-325)”: the binding entry in assay [4] and in assay [3] was “binds” in each case.
